PubChem BioAssay AID1259314, Drosophila RNAi Screening Center | 2017

- Assay: 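Genes whose knock-down alters cell survival under toxic manganese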 (primary screen)
- System: Drosophila S2R+ cells
- Reagents: long dsRNA against Drosophila genes
- Time to read-out: 5 days (4 days knock-down, then 1 day metal exposure)
- Challenge: manganese chloride added to 15 mM for 24 hours
- Read-out: 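Luciferase ATP signal used as a proxy for viable cell number, reported as one averaged z-score per dsRNA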
- Reading the numbers: mean ATP z-score: higher = more ATP than the plate average, more viable cells under manganese
- Active means: 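Called active when the mean ATP z-score is above 1.5 or below -1.5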
- Meaning of the calls: active = strong ATP change, up or down; inactive = no strong ATP change
The whole screen tested about 3,100 reagents; this is an unselected part. 289 of all reagents (9.3%) were called active. 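Active includes both higher and lower ATP than plate average; check the z-score sign for direction.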 Reagents against one gene are numbered here. Names joined by + are all predicted targets of the reagent. Reagent sequences are not shown. Not stated in the record: the amount of reagent.

Silencing of Vha16-4 resulted in: mean ATP z-score -0.575; inactive.
gb #1 scored mean ATP z-score -0.113; inactive.
Against gb #2, the values are mean ATP z-score 0.532; inactive.
C1GalTA gave mean ATP z-score -0.548; inactive.
With knock-down of Tsp42Ef, the record shows mean ATP z-score 0.974; inactive.
After knock-down of Gr93b #1 the results were mean ATP z-score -0.535; inactive.
Silencing of Gr93b #2 gave: mean ATP z-score -0.142; inactive.
Silencing of dmGlut #1 came out at: mean ATP z-score -0.222; inactive.
For dmGlut #2, the entry reads mean ATP z-score 1.07; inactive.
With knock-down of Ir8a #1, the screen gave mean ATP z-score 0.241; inactive.
With knock-down of Ir8a #2 the results were mean ATP z-score 0.499; inactive.
After knock-down of PK2-R2 #1, the record shows mean ATP z-score -0.351; inactive.
Silencing of PK2-R2 #2 came out at: mean ATP z-score 0.683; inactive.
Against Or22c #1, the entry reads mean ATP z-score -0.378; inactive.
Or22c #2 showed mean ATP z-score -0.0888; inactive.
NAAT1 #1 showed mean ATP z-score -0.452; inactive.
Against NAAT1 #2, the entry reads mean ATP z-score 1.17; inactive.
For CG15531, the values are mean ATP z-score 1.73; active.
CG15406 #1 gave mean ATP z-score -0.927; inactive.
Depletion of CG15406 #2 gave: mean ATP z-score -0.454; inactive.
Against CG10051, the entry reads mean ATP z-score -1.68; active.
Knock-down of CG3036 #1 gave: mean ATP z-score -1.22; inactive.
CG3036 #2 gave mean ATP z-score -0.141; inactive.
With knock-down of Or49b, the screen gave mean ATP z-score -0.57; inactive.
With knock-down of wun2 #1, the screen gave mean ATP z-score 0.696; inactive.
wun2 #2 scored mean ATP z-score -0.0763; inactive.
wun2 #3 showed mean ATP z-score -0.157; inactive.
Tim17b2 showed mean ATP z-score 0.0299; inactive.
Against cni the deposit lists mean ATP z-score 0.377; inactive.
pHCl-2 showed mean ATP z-score 0.367; inactive.
CG33116 scored mean ATP z-score -0.326; inactive.
After knock-down of Nhe3 #1, the record shows mean ATP z-score -0.464; inactive.
With knock-down of Nhe3 #2, the screen gave mean ATP z-score -0.782; inactive.

6 entries from above, ordered by “mean ATP z-score”, highest first.
cni — mean ATP z-score: 0.377; Call: inactive
pHCl-2 — mean ATP z-score: 0.367; Call: inactive
Tim17b2 — mean ATP z-score: 0.0299; Call: inactive
wun2 #3 — mean ATP z-score: -0.157; Call: inactive
CG33116 — mean ATP z-score: -0.326; Call: inactive
Nhe3 #1 — mean ATP z-score: -0.464; Call: inactive

Further entries follow:
Against Gr98d #1, the values are mean ATP z-score -0.0328; inactive.
After knock-down of Gr98d #2 the results were mean ATP z-score 0.485; inactive.
After knock-down of Ctr1A the results were mean ATP z-score -1.47; inactive.
Depletion of CG5853 #1 resulted in: mean ATP z-score 0.493; inactive.
CG5853 #2 showed mean ATP z-score -0.668; inactive.
For Ir93a #1, the values are mean ATP z-score 0.395; inactive.
For Ir93a #2, the values are mean ATP z-score 0.201; inactive.
Depletion of Or94b #1 came out at: mean ATP z-score -0.919; inactive.
Against Or94b #2 the deposit lists mean ATP z-score -0.267; inactive.
Against CG13995 #1 the deposit lists mean ATP z-score 0.38; inactive.
For CG13995 #2, the entry reads mean ATP z-score -1.03; inactive.
COX4L #1 gave mean ATP z-score -0.701; inactive.
With knock-down of COX4L #2 the results were mean ATP z-score -0.319; inactive.
Depletion of CG34030 resulted in: mean ATP z-score 1.23; inactive.
Silencing of CG7573 gave: mean ATP z-score 0.349; inactive.
For COX6AL2 + Ir75d #1, the entry reads mean ATP z-score -1.17; inactive.
Depletion of COX6AL2 + Ir75d #2 came out at: mean ATP z-score 0.0474; inactive.
For Cad96Ca #1 the deposit lists mean ATP z-score -0.491; inactive.
After knock-down of Cad96Ca #2, the screen gave mean ATP z-score -0.181; inactive.
Depletion of Cad96Ca #3 gave: mean ATP z-score -0.143; inactive.
For Tret1-1 #1 the deposit lists mean ATP z-score -0.485; inactive.
After knock-down of Tret1-1 #2, the record shows mean ATP z-score -0.00471; inactive.
Against CG4645 #1, the values are mean ATP z-score -1.17; inactive.
CG4645 #2 showed mean ATP z-score 2.88; active.
With knock-down of Eglp4 #1 the results were mean ATP z-score -0.937; inactive.
After knock-down of Eglp4 #2, the record shows mean ATP z-score -0.55; inactive.
mthl6 #1 showed mean ATP z-score -0.619; inactive.
Silencing of mthl6 #2 came out at: mean ATP z-score -0.577; inactive.
